This is an account of results in paper PMC6041267.

By UniProt entry, the sequences of proteins in these tests, tags left out.
UniProt Q13418: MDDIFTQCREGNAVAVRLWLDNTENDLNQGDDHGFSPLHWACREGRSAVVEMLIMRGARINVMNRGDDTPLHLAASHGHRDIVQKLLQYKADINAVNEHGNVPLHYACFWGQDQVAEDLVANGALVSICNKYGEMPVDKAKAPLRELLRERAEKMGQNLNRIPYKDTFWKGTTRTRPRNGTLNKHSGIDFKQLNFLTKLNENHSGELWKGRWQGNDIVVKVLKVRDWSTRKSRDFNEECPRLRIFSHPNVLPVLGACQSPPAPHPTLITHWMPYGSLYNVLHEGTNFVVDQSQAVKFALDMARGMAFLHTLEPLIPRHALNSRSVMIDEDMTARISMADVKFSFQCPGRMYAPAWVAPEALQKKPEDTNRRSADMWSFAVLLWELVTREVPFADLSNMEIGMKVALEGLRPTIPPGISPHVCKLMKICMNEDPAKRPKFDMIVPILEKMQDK
UniProt Q8IXI2: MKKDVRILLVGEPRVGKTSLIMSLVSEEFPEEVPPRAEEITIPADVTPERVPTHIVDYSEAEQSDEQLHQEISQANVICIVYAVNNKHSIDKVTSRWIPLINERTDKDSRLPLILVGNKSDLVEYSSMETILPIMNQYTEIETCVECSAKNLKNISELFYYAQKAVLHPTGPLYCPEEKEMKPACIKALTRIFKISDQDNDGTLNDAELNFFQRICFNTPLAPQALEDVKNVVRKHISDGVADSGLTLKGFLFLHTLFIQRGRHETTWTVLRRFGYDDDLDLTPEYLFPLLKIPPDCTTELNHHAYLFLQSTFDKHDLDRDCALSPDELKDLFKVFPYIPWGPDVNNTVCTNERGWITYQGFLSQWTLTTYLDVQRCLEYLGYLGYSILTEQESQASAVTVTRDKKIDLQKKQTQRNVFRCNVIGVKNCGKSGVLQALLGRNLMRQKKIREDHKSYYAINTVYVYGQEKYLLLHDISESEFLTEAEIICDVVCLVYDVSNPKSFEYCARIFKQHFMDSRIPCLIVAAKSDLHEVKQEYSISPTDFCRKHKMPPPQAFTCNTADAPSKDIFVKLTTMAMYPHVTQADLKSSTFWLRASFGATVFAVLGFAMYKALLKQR

No constants are given. Whether binding was seen depends on the method and setting. In cells and extracts the contact can be indirect. Some entries that bind do so weakly or less than the wild type.

For assay [1], the target named is ILK (endogenous, MDA-MB-231) (human (endogenous in MDA-MB-231)) (UniProt Q13418). Put plainly: co-IP; MDA-MB-231 cell lysates (500 ug) with anti-ILK rabbit mAb or nonimmune rabbit IgG and protein A sepharose, 4 °C, 4 h; NP-40 buffer; blot of ILK and RhoT1; also in cells transfected with siRNAs (AMAP1, Arf6, ILK).
Assay [2] has as its target mEmerald-tagged ILK (human) (UniProt Q13418). Description: proximity ligation; MDA-MB-231 cells stably expressing mEmerald-ILK (doxycycline-induced) and V5-RhoT1, fixed; anti-ILK mouse mAb and anti-V5 rabbit mAb; Duolink In Situ PLA.
For assay [3], the target named is full length ILK fused to GST (ILK-FL) (human) (UniProt Q13418). Description: pull-down; GST-fusion proteins (5 ug each) on Glutathione Sepharose 4B beads incubated with lysate (500 ug) of 293T cells expressing V5-RhoT1, 4 °C, 2 h; washed 4 times with NP-40 buffer; western blot; only the target purified. In general terms: Immunoblotting shows a protein as a band on a membrane.

Take “RhoT1 (endogenous, MDA-MB-231) (from UniProt Q8IXI2 1-618)”: the binding entry in assay [1] is “binds”.
For “V5-RhoT1 (stably expressed in MDA-MB-231 cells) (from UniProt Q8IXI2 1-618)”, the binding entry in assay [2] was “binds”.
Turning to “V5-tagged RhoT1 (overexpressed in 293T cells) (from UniProt Q8IXI2 1-618)”, the binding entry in assay [3] was “binds”.
